The record followed here is PubChem BioAssay AID435003 (Sanford-Burnham Center for Chemical Genomics, 2010).

Each structure is given as a SMILES string. The list shows a part of the results, in another mix than the full data. Activity calls are given as the source filed them. No stated cut-off is given here; in the data, active means inhibition above about 50%; inactive means the rest.

The inhibition is the change of the read-out against control, counted positive when it falls.

The assay is described as follows: inhibitors of induced NF-kB luciferase reporter, primary screen, TCR NF-kB activation inhibitor project, cell-based, luminescence, uHTS (AID 435003). As to conditions: at 4 µM, active compounds read high. In general terms: A reporter such as luciferase makes a cellular process visible.
As to `CN[C@H]1C[C@H]2O[C@@](C)([C@H]1OC)n1c3ccccc3c3c4c(c5c6ccccc6n2c5c31)C(=O)NC4`, the inhibition is active: 101%.
